{
  "source": "paper PMC10287932",
  "target": "human ANKLE1_(331–615) R492H (human) (UniProt Q8NAG6)",
  "assay": "SEC; Superdex 75 (10/300), 0.4 ml/min, 25 mM HEPES (pH 7.5), 0.1 M NaCl, 0.1 mM EDTA, 10% glycerol; elution compared with carbonic anhydrase (29 000 Da); calculated monomer mass 33 000 Da; both purified",
  "note": "Results are given in words; binding and its absence hold for the method and conditions named.",
  "data": [
    {"binder": "human ANKLE1_(331–615) R492H (domain or fragment, UniProt Q8NAG6-2 331-615) MATLWLTEDEASSTGGREPVGPCRHLPVSTVSDLELLKGLRALGENPHPITPFTRQLYHQQLEEAQIAPGPEFSGHSLELAAALRTGCIPDVQADEDALAQQFEQPDPARRWREGVVKSSFTYLLLDPRETQDLPARAFSLTPAERLQTFIRAIFYVGKGTHARPYVHLWEALGHHGRSRKQPHQACPKVRQILDIWASGCGVVSLHCFQHVVAVEAYTREACIVEALGIQTLTNQKQGHCYGVVAGWPPARRRRLGVHLLHRALLVFLAEGERQLHPQDIQARG", "values": [
      {"measurement": "binding", "result": "no binding"}
    ]}
  ]
}
